Laboratory results taken from the odorant receptor screen of Mainland et al. (2015).
Where “and” joins values, the source holds several entries; their conditions need not be identical. Identical values can stand only once. This is one part of the list. Single wells; the ratio to wells without odorant was worked out here, and repeats agree poorly.

Legend:
Test in all cases: odorant receptor activation (CRE luciferase / Renilla) (fold of no-odor wells); higher = more activation
Conditions in all cases: 100 µM
OR2T5 clone 1495 = tested on: OR2T5 clone 1495
OR2T5 clone 1496 = tested on: OR2T5 clone 1496
[1] = tested on: OR2T6 N21D/C23G/S243A clone 1432
OR2T8 clone 1576 = tested on: OR2T8 clone 1576
OR2V1 clone 1718 = tested on: OR2V1 clone 1718
OR2W1 D296N clone 1536 = tested on: OR2W1 D296N clone 1536
OR2W1 clone 1067 = tested on: OR2W1 clone 1067
OR2W3 Indel clone 1491 = tested on: OR2W3 Indel clone 1491
OR2W5 clone 1506 = tested on: OR2W5 clone 1506
OR2Y1 V200L clone 1069 = tested on: OR2Y1 V200L clone 1069

SMILES	odorant receptor activation (OR2T5 clone 1495)	odorant receptor activation (OR2T5 clone 1496)	odorant receptor activation [1]	odorant receptor activation (OR2T8 clone 1576)	odorant receptor activation (OR2V1 clone 1718)	odorant receptor activation (OR2W1 D296N clone 1536)	odorant receptor activation (OR2W1 clone 1067)	odorant receptor activation (OR2W3 Indel clone 1491)	odorant receptor activation (OR2W5 clone 1506)	odorant receptor activation (OR2Y1 V200L clone 1069)
CC(=O)OCC=C(C)CCC=C(C)C [geranyl acetate]	0.995 and 1.2	1.5 and 1.06	1.15	1.28	1.17	3.15 and 3.02	1.09 and 1.19	0.718 and 1.83	0.922 and 1.18	1.96
CCCCCCCC=O [octyl aldehyde]	0.887	1.29	0.736	0.771	0.681	1.56	1.2 and 2	0.788	0.72	1.22
CC/C=C\CCO [cis-3-hexen-1-ol]	0.959	1.04	0.173	1.11	1.16	1.49	1.16 and 1.57	0.865	1.07	1.25
CCCCCOC(C)=O [n-amyl acetate]	0.934 and 0.994	0.955 and 0.798	0.979	1.06	0.882	1.62 and 2.19	–	1.07 and 0.921	0.774 and 0.723	1.23
C=C(C)C1CCC2=CC(=O)CC(C)C2(C)C1 (configuration not stated) [amyl laurate]	–	–	–	1.41	0.832	–	0.544	–	–	–
CCC1(O)C2(C)CCC(C2)C1(C)C (configuration not stated) [2-ethylfenchol]	1.03	0.961	1.23	0.632	0.97	0.925	1.78 and 1.59	1.08	1.13	2.2
CC(=O)OC(C)(C)C1CC=C(C)CC1 (configuration not stated) [terpinyl acetate]	1.04	1.25	0.832	0.961	1.11	1.17	1.63 and 2.57	0.78	0.896	1.18
CC1CCC(C(C)C)C(O)C1 (single isomer, unassigned; (-)) [(-)-menthol]	2.35	2.75	1.17	0.643	0.931	1.28	3.26 and 2.31	2.5	1.31	2.92
CCCCCC(C)=O [2-heptanone]	0.994 and 0.736	1.24 and 0.722	1.13	–	–	1.89 and 1.07	–	1.04 and 0.664	0.895 and 0.602	0.402
CC(C)C(=O)O [isobutyric acid]	0.673 and 0.909	1.35 and 0.893	0.674	0.961	1.13	1.08 and 0.933	1.22 and 0.426	0.9 and 1.45	0.897 and 1.08	0.957
CC(C)(C)c1ccc(CCC=O)cc1 [bourgeonal]	1.14	0.823	0.154	–	–	0.923	0.595	1.05	1.02	1.13
COC(=O)c1ccccc1 [methyl benzoate]	0.7 and 1.04	0.99 and 1.1	0.878	–	–	1.4 and 1.92	–	1.13 and 0.974	0.712 and 0.929	1.57
CC12C=CCC1C1CCC3CC(=O)CCC3(C)C1CC2 (configuration not stated) [androstenone]	0.997	1.22	0.985	–	–	0.73	0.488	0.978	1.22	1.95
CCCCCCCOC(C)=O [heptyl acetate]	0.739 and 1.19	1.17 and 0.974	1.11	0.861	0.801	2.58 and 2.38	1.22 and 1.04	0.869 and 1.55	1.1 and 1.16	0.93
CC1=CCC(C(C)(C)O)CC1 (configuration not stated) [terpineol]	0.794	1.16	0.828	0.953	1.12	1.67	1.57 and 2.13	0.663	0.676	0.755
CCCCCCOC(=O)CCC [hexyl butyrate]	0.895 and 0.886	1.42 and 0.813	0.836	0.983	1.02	1.5 and 1.09	1.36 and 1.06	0.725 and 1.17	0.934 and 0.969	1.54

SMILES	odorant receptor activation (OR2T5 clone 1495)	odorant receptor activation (OR2T5 clone 1496)	odorant receptor activation [1]	odorant receptor activation (OR2T8 clone 1576)	odorant receptor activation (OR2V1 clone 1718)	odorant receptor activation (OR2W1 D296N clone 1536)	odorant receptor activation (OR2W1 clone 1067)	odorant receptor activation (OR2W3 Indel clone 1491)	odorant receptor activation (OR2W5 clone 1506)	odorant receptor activation (OR2Y1 V200L clone 1069)
CCCCCCC=O [heptaldehyde]	–	–	1.13 and 0.733	0.917	0.922	–	–	–	–	0.797 and 1.62
CC1=NC(C)SC1C (configuration not stated)	1.32 and 0.961	1.06 and 0.904	1.25	–	–	0.85 and 0.868	–	0.981 and 0.98	1.27 and 0.81	1.31
CCCCCCCCOC(C)=O [octyl acetate]	0.939	1.19	1.02	0.786	0.755	2.28	1.16 and 3.25	0.787	0.827	1.04
CC1COCc2cc3c(cc21)C(C)(C)C(C)C3(C)C (configuration not stated) [galaxolide]	3.67 and 4.17	–	2.63	–	0.927 and 0.722	1.32 and 1.5	–	8.06 and 6.87	1.17 and 3.14	2.92
CC12C=CCC1C1CCC3=CC(=O)CCC3(C)C1CC2 (configuration not stated) [androstadienone]	0.898 and 1.45	1.35 and 1.07	0.793	–	–	1.23 and 1.3	1.42	0.889 and 1.62	1.13	3.63
CC(=O)c1ccccc1 [acetophenone]	0.967 and 0.83	1.16 and 0.845	1.08	–	–	1.79 and 1.53	–	1.1 and 0.568	0.853 and 0.699	0.542
CC(C)=CCCC(C)=CC=O [citral]	1.16	0.968	0.212	1.08	1.2	2.08	1.99 and 2.72	1.09	0.943	1.18
CC(C)(O)CCCC1=CCC(C=O)CC1 (configuration not stated) [lyral]	–	–	–	0.957	1.15	–	1.02	–	–	–
CC(C)C=O [isobutyraldehyde]	0.751 and 1.25	1.28 and 0.86	0.921	0.986	1.18	1.09 and 1.17	–	0.783 and 1.56	1.12 and 1.36	1.07
C=CCc1ccc(O)c(OC)c1 [eugenol]	1.46 and 1.09 and 1.14	1.26 and 1.13 and 1.42	1.62 and 1.27	0.956	1.15	2.1 and 1.83 and 1.49	–	2.17 and 0.859 and 1.26	1.28 and 0.959 and 1.07	0.6 and 1.42
O=C1CCCCCCCCCCCCCCO1 [pentadecalactone]	0.733	1.38	1.01	0.81	0.646	0.663	0.676	0.841	1.08	0.943
CCCCCCCCCC=O [decyl aldehyde]	1.1	1.04	1.44	0.904	0.847	1.29	1.73 and 1.39	1.12	1.16	1.12
O=C1CCCCC1 [Cyclohexanone]	0.736 and 0.98	0.933 and 1.15	1.01	–	–	0.791 and 1.25	–	1.07 and 0.913	0.761 and 0.78	0.741
C=C(C)C1CC=CCC1 (configuration not stated) [r-limonene]	0.749 and 0.541 and 0.866	1.2 and 1.09 and 0.957	1.16 and 1.05	0.939	0.856	2.3 and 1.35 and 1.79	–	0.945 and 1.11 and 0.809	0.806 and 0.782 and 0.756	1.25 and 1.17
CC12CCC(CC1)C(C)(C)O2 [cineole]	0.979	0.893	0.144	0.981	0.844	0.885	1.09 and 0.829	1	0.885	0.95
